Source: PubChem BioAssay AID540256 (National Center for Advancing Translational Sciences (NCATS), 2011)
Among all 300,000 compounds or so, about 3,700 (1.2%) were called active. Inconclusive results, whose numbers are uncertain, are shown with a selection of clear calls. The call rests on the fitted dose curve; tested in HEK293 cells. Potencies of inconclusive entries are doubtful fits and often do not repeat.

Assay: qHTS for Inhibitors of binding or entry into cells for Lassa Virus; further: nearly all actives have a fitted effect of over 50% in size
Settings: Lassa virus pseudotype entry inhibition, cell reporter; series mostly up to 37.9 µM
Potency means the concentration at half of the fitted maximal effect.

Q: For `Cc1ccc(NC(=O)CCn2cc(C(F)(F)F)ccc2=O)cc1`, which Potency is on record?
A: inactive

Q: Which Potency does the source give for `COc1cccc(N2CCN(C(=S)Nc3cc(C)cc(C)c3)CC2)c1` here?
A: inconclusive: 0.891 µM [inhibitor, full curve, poor fit]

Q: For `O=C(COC(=O)Cc1cccs1)NCc1ccc(F)cc1`, which Potency is on record?
A: inconclusive: 6.31 µM [inhibitor, single point]

Q: For `CSc1ccc(/C=N/Nc2ccc(Cl)c(C(=O)O)c2)cc1`, which Potency is on record?
A: inconclusive: 10 µM [inhibitor, partial curve, poor fit]

Q: With `COc1ccc(-c2onc(C)c2C)cc1S(=O)(=O)N1c2ccccc2CC1C` (stereo not drawn) as the compound, how does the Potency read?
A: inconclusive: 3.16 µM [inhibitor, full curve, poor fit]

Q: With `COc1ccc(C(=O)n2cnnc2N)cc1` as the compound, how does the Potency read?
A: inconclusive: 0.251 µM [inhibitor, full curve, poor fit]

Q: With `COc1cccc2c1CCc1c-2nc2ccccc2c1C(=O)O` as the compound, how does the Potency read?
A: inconclusive: 35.5 µM [inhibitor, single point]

Q: With `C=CCOc1ccc(CN(C)CC(=O)Nc2ccc3c(c2)CCC3)cc1` as the compound, how does the Potency read?
A: inconclusive: 10 µM [inhibitor, partial curve, poor fit]

Q: With `N#Cc1c(NCCN)nc(NCc2ccccc2)c2c1CCN(Cc1ccccc1)C2` as the compound, how does the Potency read?
A: inactive

Q: Which Potency does the source give for `NC(=O)C(CCCCN1CCCCC1)(c1ccccc1)c1ccccc1` here?
A: inactive

Q: Which Potency does the source give for `CC(C)(C)c1ccc(OC(=O)c2ccc3nsnc3c2)cc1` here?
A: inconclusive: 0.13 µM [activator, full curve, poor fit]

Q: With `COc1ccc(-c2nnc(C3CCN(C(=O)c4ccccc4F)CC3)o2)cc1` as the compound, how does the Potency read?
A: inactive

Q: For `CC1=C(C(=O)NC2CCCc3c2cnn3-c2cccc(C)c2C)OCCO1` (stereo not drawn), which Potency is on record?
A: inconclusive: 2.82 µM [inhibitor, single point]

Q: With `CN(C(=S)NC(=O)c1ccc(Br)o1)c1ccccc1` as the compound, how does the Potency read?
A: inconclusive: 5.62 µM [activator, single point]

Q: With `Nc1[nH]ncc1-c1ccccc1` as the compound, how does the Potency read?
A: inconclusive: 5.62 µM [inhibitor, single point]

Q: Which Potency does the source give for `COC(=O)CCCCCN1C(=O)NC(c2ccc(-c3ccccc3)cc2)C(C(=O)OCc2ccccc2)=C1C` (stereo not drawn) here?
A: inconclusive: 7.31 µM [inhibitor, partial curve]

Q: With `Cc1cccc2nc(COc3ccc4ccccc4c3Br)cn12` as the compound, how does the Potency read?
A: inconclusive: 17.8 µM [inhibitor, single point]

Q: Which Potency does the source give for `O=c1cc(CN2CCN(Cc3ccccc3)CC2)c2cc3c(cc2o1)CCC3` here?
A: inconclusive: 1.26 µM [inhibitor, full curve, poor fit]

Q: With `CCN(C(=O)Cn1nc(Cc2cccnc2)c2ccccc2c1=O)c1ccccc1F` as the compound, how does the Potency read?
A: inactive

Q: For `CC(=O)c1c(C)[nH]c(C(=O)OCC(=O)N2CCN(S(=O)(=O)c3ccc(C)cc3C)CC2)c1C`, which Potency is on record?
A: inconclusive: 22.4 µM [inhibitor, single point]

Q: Which Potency does the source give for `C=CCN(c1ccc(C(=O)Nc2ccc(C)cc2)cc1)S(C)(=O)=O` here?
A: inconclusive: 11.2 µM [inhibitor, partial curve]

Q: With `Cc1cc(N2CCN(Cc3nc(-c4ccc(Cl)cc4)oc3C)CC2)cc(C)n1` as the compound, how does the Potency read?
A: inconclusive: 5.01 µM [inhibitor, full curve]

Q: For `CCCOc1ccc(/C(O)=C2/C(=O)C(=O)N(CCCn3ccnc3)C2c2ccc(C)o2)cc1` (stereo not drawn), which Potency is on record?
A: inactive

Q: With `COC(=O)C1=C(C)n2nnnc2NC1c1ccc(Cl)cc1` (stereo not drawn) as the compound, how does the Potency read?
A: inconclusive: 3.55 µM [inhibitor, partial curve, poor fit]

Q: Which Potency does the source give for `O=C(CNC(=O)c1cc(Cl)cc([N+](=O)[O-])c1)OCC(=O)N1CCCCC1` here?
A: inconclusive: 35.5 µM [activator, single point]

Q: For `Cc1cc(C)n(-c2nc3ccccc3nc2N2CCN(S(=O)(=O)c3ccc4ccccc4c3)CC2)n1`, which Potency is on record?
A: inconclusive: 18.3 µM [inhibitor, partial curve, poor fit]

Q: Which Potency does the source give for `CCOc1ccccc1NC(=O)c1cccn(Cc2ccccc2C)c1=O` here?
A: inconclusive: 35.5 µM [activator, single point]

Q: Which Potency does the source give for `COc1ccc(NC(=O)/C(C#N)=C/c2ccc(OCc3cc(=O)n4nc(C)sc4n3)cc2)cc1` here?
A: inactive

Q: For `CC(=O)Oc1ccccc1C(=O)C=Cc1cccc([N+](=O)[O-])c1`, which Potency is on record?
A: inconclusive: 11.2 µM [inhibitor, partial curve, poor fit]

Q: Which Potency does the source give for `Cc1cc(NC(=O)Nc2ccc(Cl)cc2)no1` here?
A: inactive

Q: For `Cc1c2ccncc2c(C)c2c1[nH]c1ccccc12`, which Potency is on record?
A: active: 6.51 µM

Q: With `O=C(NCCc1csc(-c2ccc(Cl)cc2)n1)c1cccs1` as the compound, how does the Potency read?
A: inactive

Q: With `Cc1noc(C)c1COc1ccccc1C(=O)N(C)Cc1ccc(F)cc1` as the compound, how does the Potency read?
A: inconclusive: 0.398 µM [activator, single point]

Q: With `Cc1noc(C)c1C(=O)NCc1ccccc1Br` as the compound, how does the Potency read?
A: inactive

Q: Which Potency does the source give for `COc1ccc(Nc2nc(N)nc(CN3CCOCC3)n2)cc1` here?
A: inactive

Q: For `O=C(/C=C/c1ccc(F)cc1)N1CC[C@@]2(O)CCCC[C@H]2C1`, which Potency is on record?
A: inconclusive: 0.562 µM [inhibitor, full curve, poor fit]

Q: With `CC(C)(C)N1C(=O)c2ccc(C(=O)Nc3ccc(-c4nc5ccccc5[nH]4)cc3)cc2C1=O` as the compound, how does the Potency read?
A: inactive

Q: Which Potency does the source give for `CN1CCN(NC(=O)c2cn(-c3ccccc3)nc2-c2cccc(Br)c2)CC1` here?
A: inconclusive: 35.5 µM [inhibitor, single point]

Q: With `CN(c1ccc(C(=O)NCCSCc2ccc(Cl)cc2)cc1)S(=O)(=O)c1ccccc1` as the compound, how does the Potency read?
A: inconclusive: 29.1 µM [inhibitor, single point]

Q: With `COc1ccc(/C=C(\C#N)C(=O)OCCNC(=O)c2ccncc2)cc1` as the compound, how does the Potency read?
A: inconclusive: 6.31 µM [activator, full curve]

Q: For `Cc1ccc(NC(=O)COC(=O)C2CC2C)c(S(=O)(=O)N2CCCCC2)c1` (stereo not drawn), which Potency is on record?
A: inconclusive: 35.5 µM [inhibitor, single point]

Q: For `CC1Cc2ccccc2N1S(=O)(=O)c1cccc(C(=O)OCC(=O)NC2CCS(=O)(=O)C2)c1` (stereo not drawn), which Potency is on record?
A: inconclusive: 12.6 µM [inhibitor, partial curve, poor fit]

Q: Which Potency does the source give for `CCOC(=O)c1cnc(Nc2nc3ccccc3o2)nc1CSC(=S)N(CC)CC` here?
A: inconclusive: 2.24 µM [inhibitor, full curve, poor fit]
